Earlier results in article PMC6061170, “Synthesis and biological investigations of 3β-aminotropane arylamide derivatives with atypical antipsychotic profile” (Medicinal Chemistry Research, 2018).
pKi: −log10 of the molar value.

Target: D2
Conditions: read-out: D2 Ki; ref Schmidt et al. 2001; cited from earlier work

With `OCCOCCN1CCN(C2=Nc3ccccc3Sc3ccccc32)CC1` [Quetiapine] as the molecule, how does the pKi read?
Its pKi is 6.74.
